Experimental findings from PMC4120696 are described below.

By UniProt entry, the sequences of proteins in these tests, tags left out.
UniProt O75367: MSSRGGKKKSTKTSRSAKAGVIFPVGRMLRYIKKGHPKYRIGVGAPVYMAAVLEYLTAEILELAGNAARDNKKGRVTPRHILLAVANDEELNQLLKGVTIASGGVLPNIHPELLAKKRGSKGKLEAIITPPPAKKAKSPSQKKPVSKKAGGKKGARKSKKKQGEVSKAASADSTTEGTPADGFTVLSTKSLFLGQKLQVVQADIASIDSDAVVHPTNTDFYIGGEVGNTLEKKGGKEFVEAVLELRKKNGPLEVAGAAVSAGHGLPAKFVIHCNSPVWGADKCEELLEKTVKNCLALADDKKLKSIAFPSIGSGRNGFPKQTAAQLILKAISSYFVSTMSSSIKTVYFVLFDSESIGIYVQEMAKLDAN
UniProt P04406: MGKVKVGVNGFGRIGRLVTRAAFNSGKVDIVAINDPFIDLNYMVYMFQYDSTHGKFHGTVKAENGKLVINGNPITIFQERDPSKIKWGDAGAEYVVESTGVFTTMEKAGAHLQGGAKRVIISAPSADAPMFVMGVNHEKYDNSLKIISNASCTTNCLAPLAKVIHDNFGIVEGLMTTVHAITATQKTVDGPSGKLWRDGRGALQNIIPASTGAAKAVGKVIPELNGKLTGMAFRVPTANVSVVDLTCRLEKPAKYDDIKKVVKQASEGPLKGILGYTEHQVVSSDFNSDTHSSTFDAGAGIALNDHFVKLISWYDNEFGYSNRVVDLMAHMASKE

These are yes or no findings as the source states them, for the method shown. In cells and extracts the contact can be indirect.

This test addresses mH2A1 (human (endogenous in GM00254, GM00468 and GM6111 fibroblasts)) (UniProt O75367). Put plainly: co-IP; chromatin immunoprecipitation with anti-mH2A1 antibody (ab37264) and protein G magnetic beads from paraformaldehyde cross-linked, sonicated lysates of and triple-X human fibroblasts; washes with RIPA/SDS and with 500 mM NaCl RIPA at 4°C; cross-links reversed; protein content read by western blot.

With “GAPDH (glyceraldehyde-3-phosphate dehydrogenase) (from UniProt P04406 1-335)”, the binding entry is given as “no binding”.
